Some of the results follow.

Sequences of proteins named here, by UniProt entry; tags and fusion partners are left off. A change or cut given only in a name is not applied to a line headed by its entry.
UniProt P17706: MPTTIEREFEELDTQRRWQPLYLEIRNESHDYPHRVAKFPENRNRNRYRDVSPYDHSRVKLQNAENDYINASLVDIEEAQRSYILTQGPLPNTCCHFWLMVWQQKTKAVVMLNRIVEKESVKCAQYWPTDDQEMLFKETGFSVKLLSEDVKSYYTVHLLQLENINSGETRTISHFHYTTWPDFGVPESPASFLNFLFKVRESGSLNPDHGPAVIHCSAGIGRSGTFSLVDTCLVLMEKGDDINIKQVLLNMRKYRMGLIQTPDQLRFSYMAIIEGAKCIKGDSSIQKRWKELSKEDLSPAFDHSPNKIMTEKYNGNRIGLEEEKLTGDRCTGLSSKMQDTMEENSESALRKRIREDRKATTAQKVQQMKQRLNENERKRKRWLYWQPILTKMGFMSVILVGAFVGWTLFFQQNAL
UniProt Q99575: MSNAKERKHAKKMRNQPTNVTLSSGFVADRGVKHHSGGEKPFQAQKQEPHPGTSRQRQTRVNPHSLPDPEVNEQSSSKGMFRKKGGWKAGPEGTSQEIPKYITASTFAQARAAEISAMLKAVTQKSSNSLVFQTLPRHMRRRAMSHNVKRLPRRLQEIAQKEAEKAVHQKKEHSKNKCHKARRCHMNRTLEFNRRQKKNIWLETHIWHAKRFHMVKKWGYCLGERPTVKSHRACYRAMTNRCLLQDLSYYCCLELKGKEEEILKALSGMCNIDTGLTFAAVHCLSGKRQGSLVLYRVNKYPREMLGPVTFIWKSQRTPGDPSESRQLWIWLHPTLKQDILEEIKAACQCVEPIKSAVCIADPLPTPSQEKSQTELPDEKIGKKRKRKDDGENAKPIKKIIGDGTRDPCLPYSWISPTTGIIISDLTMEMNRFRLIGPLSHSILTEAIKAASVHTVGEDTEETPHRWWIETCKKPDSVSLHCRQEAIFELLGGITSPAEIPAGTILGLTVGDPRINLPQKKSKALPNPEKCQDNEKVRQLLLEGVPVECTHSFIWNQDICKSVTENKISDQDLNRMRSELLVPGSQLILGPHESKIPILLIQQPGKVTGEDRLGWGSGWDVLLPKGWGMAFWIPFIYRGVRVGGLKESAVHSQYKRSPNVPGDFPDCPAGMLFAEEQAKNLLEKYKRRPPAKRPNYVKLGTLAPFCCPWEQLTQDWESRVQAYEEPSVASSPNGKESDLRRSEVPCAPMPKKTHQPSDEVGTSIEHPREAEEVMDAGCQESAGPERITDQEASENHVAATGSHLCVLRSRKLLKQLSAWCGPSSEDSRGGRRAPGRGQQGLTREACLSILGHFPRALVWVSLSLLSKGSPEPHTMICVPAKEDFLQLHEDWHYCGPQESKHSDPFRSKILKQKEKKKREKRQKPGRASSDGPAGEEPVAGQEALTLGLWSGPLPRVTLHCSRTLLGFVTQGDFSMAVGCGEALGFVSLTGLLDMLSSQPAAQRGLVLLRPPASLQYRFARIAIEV
UniProt Q12974: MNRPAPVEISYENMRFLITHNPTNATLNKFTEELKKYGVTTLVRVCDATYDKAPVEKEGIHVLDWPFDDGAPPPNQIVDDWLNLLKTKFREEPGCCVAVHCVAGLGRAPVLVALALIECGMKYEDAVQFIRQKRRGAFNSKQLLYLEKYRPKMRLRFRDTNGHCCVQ
UniProt O15160, whole entry: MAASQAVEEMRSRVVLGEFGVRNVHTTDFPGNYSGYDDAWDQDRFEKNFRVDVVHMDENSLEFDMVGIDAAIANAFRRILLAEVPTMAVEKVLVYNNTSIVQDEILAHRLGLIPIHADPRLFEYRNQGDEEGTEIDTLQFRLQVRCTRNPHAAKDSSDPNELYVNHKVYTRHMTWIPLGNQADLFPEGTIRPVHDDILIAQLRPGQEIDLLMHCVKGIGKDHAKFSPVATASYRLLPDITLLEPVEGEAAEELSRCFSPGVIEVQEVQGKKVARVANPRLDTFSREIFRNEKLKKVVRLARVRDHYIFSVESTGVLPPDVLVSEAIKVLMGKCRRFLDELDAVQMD
UniProt Q8N490: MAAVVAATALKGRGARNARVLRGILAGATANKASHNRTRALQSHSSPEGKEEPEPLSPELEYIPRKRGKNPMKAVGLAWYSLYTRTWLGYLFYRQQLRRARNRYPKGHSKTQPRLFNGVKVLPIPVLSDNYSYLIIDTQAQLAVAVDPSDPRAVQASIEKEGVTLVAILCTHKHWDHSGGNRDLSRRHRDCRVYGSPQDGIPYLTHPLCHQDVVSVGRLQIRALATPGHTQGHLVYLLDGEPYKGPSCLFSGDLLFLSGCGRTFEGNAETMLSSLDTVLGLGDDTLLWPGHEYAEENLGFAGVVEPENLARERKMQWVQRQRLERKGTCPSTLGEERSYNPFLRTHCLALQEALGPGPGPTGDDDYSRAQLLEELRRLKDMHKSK
UniProt P25789: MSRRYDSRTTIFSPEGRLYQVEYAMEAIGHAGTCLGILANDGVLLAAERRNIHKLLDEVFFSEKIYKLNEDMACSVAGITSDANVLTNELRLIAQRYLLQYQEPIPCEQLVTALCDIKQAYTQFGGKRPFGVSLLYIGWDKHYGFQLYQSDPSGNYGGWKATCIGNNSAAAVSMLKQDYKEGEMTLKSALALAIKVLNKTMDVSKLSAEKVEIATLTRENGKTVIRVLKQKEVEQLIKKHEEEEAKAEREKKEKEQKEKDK
UniProt O75688: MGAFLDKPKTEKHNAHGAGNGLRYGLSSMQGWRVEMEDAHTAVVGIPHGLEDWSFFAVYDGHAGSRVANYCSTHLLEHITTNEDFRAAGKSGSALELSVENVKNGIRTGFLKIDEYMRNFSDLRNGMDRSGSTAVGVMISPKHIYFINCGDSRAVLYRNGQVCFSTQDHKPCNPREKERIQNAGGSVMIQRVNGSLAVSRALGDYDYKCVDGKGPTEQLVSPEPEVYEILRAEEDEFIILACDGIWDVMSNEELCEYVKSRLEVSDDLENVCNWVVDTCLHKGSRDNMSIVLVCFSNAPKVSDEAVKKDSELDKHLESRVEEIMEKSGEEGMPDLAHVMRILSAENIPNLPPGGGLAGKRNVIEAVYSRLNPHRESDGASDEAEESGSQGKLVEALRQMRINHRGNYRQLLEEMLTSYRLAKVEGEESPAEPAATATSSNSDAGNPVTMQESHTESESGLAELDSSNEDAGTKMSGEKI
UniProt P49005: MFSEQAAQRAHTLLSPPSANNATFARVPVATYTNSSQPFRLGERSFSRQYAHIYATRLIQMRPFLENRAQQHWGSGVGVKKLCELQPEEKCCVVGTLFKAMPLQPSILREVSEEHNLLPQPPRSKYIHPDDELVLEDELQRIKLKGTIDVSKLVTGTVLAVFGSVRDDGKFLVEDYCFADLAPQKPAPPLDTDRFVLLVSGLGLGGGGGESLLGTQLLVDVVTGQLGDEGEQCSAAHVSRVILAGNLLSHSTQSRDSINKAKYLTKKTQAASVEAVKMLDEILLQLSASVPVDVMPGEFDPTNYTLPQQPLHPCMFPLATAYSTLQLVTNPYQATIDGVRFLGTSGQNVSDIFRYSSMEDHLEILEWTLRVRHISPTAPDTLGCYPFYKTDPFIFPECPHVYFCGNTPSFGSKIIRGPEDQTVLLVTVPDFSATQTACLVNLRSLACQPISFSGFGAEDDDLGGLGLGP
UniProt P31321, whole entry: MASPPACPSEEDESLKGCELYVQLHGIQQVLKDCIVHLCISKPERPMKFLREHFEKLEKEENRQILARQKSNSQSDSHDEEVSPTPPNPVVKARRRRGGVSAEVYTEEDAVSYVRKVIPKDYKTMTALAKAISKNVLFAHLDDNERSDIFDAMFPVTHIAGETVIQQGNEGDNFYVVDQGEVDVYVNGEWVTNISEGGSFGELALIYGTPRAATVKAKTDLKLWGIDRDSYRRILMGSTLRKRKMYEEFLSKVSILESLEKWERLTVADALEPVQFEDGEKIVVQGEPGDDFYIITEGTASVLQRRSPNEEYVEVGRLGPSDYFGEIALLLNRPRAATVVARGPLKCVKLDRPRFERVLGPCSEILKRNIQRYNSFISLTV
UniProt Q9P215: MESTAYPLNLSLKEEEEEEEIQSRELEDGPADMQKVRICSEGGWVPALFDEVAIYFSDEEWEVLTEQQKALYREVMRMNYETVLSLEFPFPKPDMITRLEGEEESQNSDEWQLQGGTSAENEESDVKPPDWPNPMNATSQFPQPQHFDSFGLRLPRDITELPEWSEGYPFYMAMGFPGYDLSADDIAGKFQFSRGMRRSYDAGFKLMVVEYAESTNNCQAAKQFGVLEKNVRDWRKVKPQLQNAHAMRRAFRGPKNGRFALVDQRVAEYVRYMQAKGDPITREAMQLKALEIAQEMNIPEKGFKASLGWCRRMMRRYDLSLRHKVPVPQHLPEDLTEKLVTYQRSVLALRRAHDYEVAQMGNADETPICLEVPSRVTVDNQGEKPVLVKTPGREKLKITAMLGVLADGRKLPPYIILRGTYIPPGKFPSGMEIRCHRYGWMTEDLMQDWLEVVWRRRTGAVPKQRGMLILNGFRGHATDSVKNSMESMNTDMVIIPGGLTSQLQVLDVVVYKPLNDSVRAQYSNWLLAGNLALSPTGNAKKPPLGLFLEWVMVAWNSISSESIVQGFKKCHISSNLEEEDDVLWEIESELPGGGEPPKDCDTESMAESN
UniProt Q8WXF1: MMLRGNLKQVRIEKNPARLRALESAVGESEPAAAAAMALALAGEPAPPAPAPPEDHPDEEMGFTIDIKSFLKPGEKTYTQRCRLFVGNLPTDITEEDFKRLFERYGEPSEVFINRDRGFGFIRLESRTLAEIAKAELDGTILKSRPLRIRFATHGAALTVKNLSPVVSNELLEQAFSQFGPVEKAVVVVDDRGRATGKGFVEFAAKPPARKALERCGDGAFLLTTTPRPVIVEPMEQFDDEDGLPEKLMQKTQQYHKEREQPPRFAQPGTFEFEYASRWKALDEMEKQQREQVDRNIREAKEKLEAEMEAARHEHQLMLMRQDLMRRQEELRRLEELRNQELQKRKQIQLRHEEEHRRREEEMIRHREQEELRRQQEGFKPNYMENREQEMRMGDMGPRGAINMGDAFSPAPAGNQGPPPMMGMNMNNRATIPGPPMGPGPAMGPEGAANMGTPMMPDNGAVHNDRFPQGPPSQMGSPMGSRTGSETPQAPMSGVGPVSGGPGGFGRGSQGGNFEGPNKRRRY
UniProt Q9Y2G5: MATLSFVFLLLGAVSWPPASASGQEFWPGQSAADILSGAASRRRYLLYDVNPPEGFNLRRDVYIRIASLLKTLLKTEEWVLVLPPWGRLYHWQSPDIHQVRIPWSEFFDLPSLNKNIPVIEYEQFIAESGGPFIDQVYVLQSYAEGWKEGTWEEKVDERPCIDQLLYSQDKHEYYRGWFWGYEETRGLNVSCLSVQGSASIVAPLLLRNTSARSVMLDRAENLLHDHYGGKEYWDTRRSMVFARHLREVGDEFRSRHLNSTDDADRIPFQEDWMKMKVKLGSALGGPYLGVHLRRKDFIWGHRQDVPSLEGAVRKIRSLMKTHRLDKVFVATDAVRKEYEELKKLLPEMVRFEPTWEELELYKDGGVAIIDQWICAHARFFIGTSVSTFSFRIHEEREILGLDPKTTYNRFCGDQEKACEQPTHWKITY
UniProt Q8NEY8: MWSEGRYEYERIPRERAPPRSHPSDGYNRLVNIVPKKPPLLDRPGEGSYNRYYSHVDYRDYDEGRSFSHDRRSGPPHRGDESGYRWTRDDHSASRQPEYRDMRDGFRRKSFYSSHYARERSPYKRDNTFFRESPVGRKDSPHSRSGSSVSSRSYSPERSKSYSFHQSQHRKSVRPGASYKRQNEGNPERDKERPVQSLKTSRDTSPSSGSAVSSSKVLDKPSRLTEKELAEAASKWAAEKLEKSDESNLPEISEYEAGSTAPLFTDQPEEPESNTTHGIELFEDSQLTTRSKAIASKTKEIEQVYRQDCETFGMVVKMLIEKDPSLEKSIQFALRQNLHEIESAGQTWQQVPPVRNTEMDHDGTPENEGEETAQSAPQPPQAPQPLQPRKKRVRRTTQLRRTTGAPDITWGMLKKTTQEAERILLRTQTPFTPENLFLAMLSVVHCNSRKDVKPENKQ
UniProt Q96LA8, whole entry, looked up: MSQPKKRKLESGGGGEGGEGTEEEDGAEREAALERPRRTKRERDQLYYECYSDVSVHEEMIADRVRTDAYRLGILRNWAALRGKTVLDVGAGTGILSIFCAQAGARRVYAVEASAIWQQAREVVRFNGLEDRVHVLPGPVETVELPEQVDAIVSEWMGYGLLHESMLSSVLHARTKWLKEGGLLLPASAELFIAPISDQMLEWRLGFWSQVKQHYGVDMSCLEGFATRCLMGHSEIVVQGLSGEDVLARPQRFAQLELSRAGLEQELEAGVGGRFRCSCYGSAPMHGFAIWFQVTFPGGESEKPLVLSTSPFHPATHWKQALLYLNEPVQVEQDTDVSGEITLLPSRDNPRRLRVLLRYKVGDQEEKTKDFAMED
UniProt P28062: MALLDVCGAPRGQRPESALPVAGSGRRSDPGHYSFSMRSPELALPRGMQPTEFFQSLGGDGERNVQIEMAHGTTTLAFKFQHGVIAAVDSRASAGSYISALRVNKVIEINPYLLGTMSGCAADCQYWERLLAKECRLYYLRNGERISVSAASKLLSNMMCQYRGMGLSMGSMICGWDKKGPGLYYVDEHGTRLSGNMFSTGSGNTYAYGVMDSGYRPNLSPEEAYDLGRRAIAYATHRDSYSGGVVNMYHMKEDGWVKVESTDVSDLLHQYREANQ

Compound in the assay: COc1ccc(Cn2ccc3cc(C)c(C(=O)NO)cc32)cc1
Kind of assay: dose-dependent thermal stabilisation call (2D-TPP, DLPTP, 10% FDR) (binary (1 = stabilised)); higher = stabilised by the compound. The conditions noted are these: system: HL-60 intact cells; concentration range 0.04-10 µM. How it is done: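 2D thermal proteome profiling in intact HL-60 cells treated with BRD-3811 (0, 0.04, 0.29, 2, 10 uM) for 90 min at 37 C, then heated 3 min at one of 12 temperatures (42-63.9 C). Soluble protein was quantified by TMT10 MS. The value is the DLPTP call of the paper: dose-dependent thermal stabilisation over all temperatures at 10% FDR (F-test of a dose-response against a flat model); one experiment, one call per tested protein.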
As for PNKP (UniProt Q96T60), the “dose-dependent thermal stabilisation call” value was inactive: 0.

In the case of POLE (UniProt Q07864), the “dose-dependent thermal stabilisation call” value is inactive: 0. The figure for PRMT7 (UniProt Q9NVM4) is inactive: 0; for POLR2G (UniProt P62487) it is inactive: 0; for PMVK (UniProt Q15126) it is inactive: 0.

As to PTPN2 (UniProt P17706), the “dose-dependent thermal stabilisation call” value was inactive: 0.

Take PLXNB1 (UniProt O43157): the “dose-dependent thermal stabilisation call” value is inactive: 0.

Turning to POP1 (UniProt Q99575), the “dose-dependent thermal stabilisation call” value is inactive: 0.

Regarding PTPN11 (UniProt Q06124), the “dose-dependent thermal stabilisation call” value is inactive: 0. For the target PTP4A2 (UniProt Q12974), the “dose-dependent thermal stabilisation call” value is inactive: 0.

For the target PPID (UniProt Q08752), the “dose-dependent thermal stabilisation call” value is inactive: 0.

As to POLR1C (UniProt O15160), the “dose-dependent thermal stabilisation call” value is inactive: 0. As for PQBP1 (UniProt O60828), the “dose-dependent thermal stabilisation call” value is inactive: 0. With PNKD (UniProt Q8N490), the “dose-dependent thermal stabilisation call” value is active: 1. The figure for POLR3F (UniProt Q9H1D9) is inactive: 0; for PSMA4 (UniProt P25789) it is inactive: 0. The figure for PPM1B (UniProt O75688) is inactive: 0; for POLD2 (UniProt P49005) it is inactive: 0; for PPP2R2D (UniProt Q66LE6) it is inactive: 0. The figure for PRKAR1B (UniProt P31321) is inactive: 0; for POGK (UniProt Q9P215) it is inactive: 0. For the target PSMD6 (UniProt Q15008), the “dose-dependent thermal stabilisation call” value was inactive: 0. The figure for PPP3CB (UniProt P16298) is inactive: 0.

Take PSPC1 (UniProt Q8WXF1): the “dose-dependent thermal stabilisation call” value was inactive: 0. The figure for PPP1R2 (UniProt P41236) is inactive: 0; for PSEN1 (UniProt P49768) it is inactive: 0; for POFUT2 (UniProt Q9Y2G5) it is inactive: 0.

Turning to PRPF38B (UniProt Q5VTL8), the “dose-dependent thermal stabilisation call” value was inactive: 0. Take PPHLN1 (UniProt Q8NEY8): the “dose-dependent thermal stabilisation call” value was inactive: 0. Turning to PRMT6 (UniProt Q96LA8), the “dose-dependent thermal stabilisation call” value is inactive: 0. As for PTPLB (UniProt Q6Y1H2), the “dose-dependent thermal stabilisation call” value was inactive: 0. Turning to PPP1R7 (UniProt Q15435), the “dose-dependent thermal stabilisation call” value was inactive: 0. The figure for PSMD3 (UniProt O43242) is inactive: 0; for PSMB8 (UniProt P28062) it is inactive: 0. With PPIG (UniProt Q13427), the “dose-dependent thermal stabilisation call” value is inactive: 0. The figure for PPOX (UniProt P50336) is inactive: 0.
